No constants are given. Whether binding was seen depends on the method and setting. Binding seen in cells or lysates may run through a third protein. Some binding calls cover weakened binding; strength is not graded here.

The assay has as its target T1, syndecan-1 (human (endogenous in HBEC-3)) (UniProt P18827).
T1 sequence: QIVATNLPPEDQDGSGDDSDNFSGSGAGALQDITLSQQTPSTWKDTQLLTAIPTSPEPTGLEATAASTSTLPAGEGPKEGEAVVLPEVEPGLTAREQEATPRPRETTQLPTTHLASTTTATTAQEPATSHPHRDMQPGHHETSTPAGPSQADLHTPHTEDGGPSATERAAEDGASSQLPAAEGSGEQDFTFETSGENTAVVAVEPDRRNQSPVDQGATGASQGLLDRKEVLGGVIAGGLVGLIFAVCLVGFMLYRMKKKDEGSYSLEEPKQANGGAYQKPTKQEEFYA
Nature of the assay: co-IP; SDC1 immunoprecipitates from HBEC-3 cell extracts (500 ug cleared lysate, 3 ug antibody, protein-A agarose beads), Western blot for NDR2 and GEF-H1; SDC-1 silencing as control. A general note: A western blot detects proteins with antibodies after separation by electrophoresis.

On to “endogenous NDR2 (from UniProt Q9Y2H1-1 1-464) (enzyme)”, for which the binding entry is “binds”.

(Values after publication PMC6461807.)
